# Laboratory results from patent publication US20220008365A1, “Treating Intraocular Retinoblastoma with Inhibitors of Histone Modification” (Vanderbilt University, priority 2018, published 2022).
# System: human retinoblastoma cells
# Experiment: killing of human retinoblastoma cells in cell culture
# Assay type: cell-based
# Settings: brief pulse exposure, multiple concentrations
# Description: The present inventors have additionally determined the pharmacokinetics of belinostat when injected directly into the vitreous of the rabbit eye and have calculated its intraocular half-life in vivo. […] Specifically, once the PK curve of intravitreally-injected belinostat was determined and the half-life calculated, human retinoblastoma cells were incubated in cell culture in media containing varying concentrations of belinostat for a length of time equivalent to 5 intraocular half-lives, the media was then replaced with belinostat-free media and incubated for 7 days, and the number of surviving cells was then determined. Then, as an example, the present inventors back-calculated the initial intravitreal injection dose that would ensure that a concentration equal to or above the in vitro IC90 would be achieved even out to 5 half-lives, in vivo.
smiles,measurement,value
"O=C(CCCCCCC(=O)Nc1ccccc1)NO [vorinostat, suberanilohydroxamic acid]",killing of human retinoblastoma cells by a brief pulse of HDAC inhibitor,can be killed by exposure to a brief pulse
